Paper PMC5996148
Values joined by “and” are separate entries in the source; they are usually repeats but may differ in a detail not shown here. Identical values can stand only once. Some of the results follow.

Key:
Test in all cases: protein microarray (ProtoArray v5.0), streptavidin-Alexa Fluor 647
Conditions in all cases: 3'-biotin; 20 mM Tris (pH 7.5), 5 mM MgCl2, 100 mM KCl, 0.1% Tween-20, A/T-rich and random oligonucleotide blockers; temperature not stated; high values mean tight binding
TIMM10 (human) = tested on: TIMM10 (human)
TIMM17A (human) = tested on: TIMM17A (human)
TIMM8A (human) = tested on: TIMM8A (human)
TIMM8B (human) = tested on: TIMM8B (human)
TIMP4 (human) = tested on: TIMP4 (human)
TINAGL1 (human) = tested on: TINAGL1 (human)
TIPIN (human) = tested on: TIPIN (human)
TK1 (human) = tested on: TK1 (human)
TLE3 (human) = tested on: TLE3 (human)
[1] = tested on: TM2 domain-containing protein 2 (human)

**Q.** Which results are given for “GGGAGGCTGAGGCAGG [G4-1 biotinylated (PQS2)]”?
**A.** binding signal (TIMM10 (human)): -0.336 z-score; binding signal (TIMM17A (human)): -0.333 z-score; binding signal (TIMM8A (human)): -0.361 z-score; binding signal (TIMM8B (human)): -0.342 z-score; binding signal (TIMP4 (human)): -0.233 z-score; binding signal (TINAGL1 (human)): -0.304 z-score and -0.32 z-score; binding signal (TIPIN (human)): -0.351 z-score; binding signal (TK1 (human)): -0.349 z-score; binding signal (TLE3 (human)): -0.357 z-score and -0.343 z-score; binding signal [1]: -0.31 z-score
